Test results reported in patent US20080194681A1, “Novel Inhibitors of Histone Deacetylase for the Treatment of Disease” (Kalypsys, Inc., priority 2004, published 2008).
For at least one compound, name, drawing or mass did not settle the structure.

Tested on: HDAC
Assay: In vitro HDAC-inhibition assay (Fluor de Lys fluorescent substrate)
Assay type: biochemical
Settings: HDAC enzyme source (e.g. nuclear extract or immunopurified HDAC complexes)
Description: In Vitro HDAC-Inhibition Assay:
This assay measures a compound's ability to inhibit acetyl-lysine deacetylation in vitro and was used as both a primary screening method as well as for IC50 determinations of confirmed inhibitors. The assay is performed in vitro using an HDAC enzyme source (e.g. partially purified nuclear extract or immunopurified HDAC complexes) and a proprietary fluorescent substrate/developer system (HDAC Quantizyme Fluor de Lys Fluorescent Activity Assay, BIOMOL). The assay is run in 1,536-well Greiner white-bottom plates using the following volumes and order of addition: • Step 1: Enzyme (2.5 ul) source added to plate (from refrigerated container) • Step 2: Compounds (50 nl) added with pin transfer device • Step 3: Fluor de Lys (2.5 ul) substrate added, incubate at RT, 30 minutes • Step 4: Developer (5 ul) solution is added (containing TSA), to stop reaction • Step 5: Plate Reader—data collection
The deacetylated fluorophore is excited with 360 nm light and the emitted light (460 nm) is detected on an automated fluorometric plate reader (Aquest, Molecular Devices).

SMILES	IC50 [µM]
CC(=O)SCC(=O)c1ccc(S(=O)(=O)N2CCN(c3ccc(C(F)(F)F)cn3)CC2)cc1 [Example 38, Thioacetic acid S-(2-oxo-2-{4-[4-(5-trifluoromethyl-pyridin-2-yl)-piperazine-1-sulfonyl]phenyl}-ethyl)ester]	< 1
CC(=O)SCC(=O)c1ccc(NS(=O)(=O)N(C)c2ccccc2)cc1 [Example 43, N-methyl-N-phenyl-N′-thioacetic acid S-(2-oxo-2-phenyl-ethyl)ester-sulfamide]	< 1
